Results are given in words; binding and its absence hold for the method and conditions named. Binding seen in cells or lysates may run through a third protein. Some results given as binding are weak or reduced against the parent protein; the word gives no strength. Tags and fused reporters may be left off the sequences shown.
T1: caveolin-1, endogenous in rat aortic SMC (rat) (UniProt P41350)
T1 sequence (looked up): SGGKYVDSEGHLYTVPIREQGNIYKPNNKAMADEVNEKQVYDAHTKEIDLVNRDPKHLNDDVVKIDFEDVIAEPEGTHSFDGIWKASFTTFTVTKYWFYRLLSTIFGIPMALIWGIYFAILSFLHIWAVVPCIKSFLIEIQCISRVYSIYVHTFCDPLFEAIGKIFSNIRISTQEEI

T2: RHAMM (Receptor for HA-Mediated Motility, CD168), endogenous rat protein (rat) (UniProt P97779)
T2 sequence (looked up): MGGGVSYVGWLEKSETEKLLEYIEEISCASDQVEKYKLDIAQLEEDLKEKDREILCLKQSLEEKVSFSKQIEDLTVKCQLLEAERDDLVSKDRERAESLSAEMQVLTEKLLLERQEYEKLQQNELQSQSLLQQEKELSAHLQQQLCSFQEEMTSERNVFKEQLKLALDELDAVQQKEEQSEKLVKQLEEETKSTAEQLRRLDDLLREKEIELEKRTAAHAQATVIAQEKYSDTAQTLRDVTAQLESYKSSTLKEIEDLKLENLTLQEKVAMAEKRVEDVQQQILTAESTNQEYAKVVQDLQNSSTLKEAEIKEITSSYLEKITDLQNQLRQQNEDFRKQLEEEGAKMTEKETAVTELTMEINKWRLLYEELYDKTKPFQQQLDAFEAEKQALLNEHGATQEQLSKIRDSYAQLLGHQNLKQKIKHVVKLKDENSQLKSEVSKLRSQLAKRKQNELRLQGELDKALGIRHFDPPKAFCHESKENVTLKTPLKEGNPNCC


Assays:
[1] = biological target: T1, caveolin-1, endogenous in rat aortic SMC (rat); test: co-immunoprecipitation, FIG. 9C
[2] = biological target: T1, caveolin-1, endogenous in rat aortic SMC (rat); test: co-immunoprecipitation from SMC lysate with caveolin-1 antibody, immunoblot for RHAMM
[3] = biological target: T2, RHAMM (Receptor for HA-Mediated Motility, CD168), endogenous rat protein (rat); test: co-immunoprecipitation from SMC lysate with R36, immunoblot for caveolin-1

binding [1]	binding [2]	binding [3]	Binder
binds	binds	–	RHAMM (Receptor for HA-Mediated Motility, CD168), endogenous rat protein (receptor, UniProt P97779 1-498, looked up) MGGGVSYVGWLEKSETEKLLEYIEEISCASDQVEKYKLDIAQLEEDLKEKDREILCLKQSLEEKVSFSKQIEDLTVKCQLLEAERDDLVSKDRERAESLSAEMQVLTEKLLLERQEYEKLQQNELQSQSLLQQEKELSAHLQQQLCSFQEEMTSERNVFKEQLKLALDELDAVQQKEEQSEKLVKQLEEETKSTAEQLRRLDDLLREKEIELEKRTAAHAQATVIAQEKYSDTAQTLRDVTAQLESYKSSTLKEIEDLKLENLTLQEKVAMAEKRVEDVQQQILTAESTNQEYAKVVQDLQNSSTLKEAEIKEITSSYLEKITDLQNQLRQQNEDFRKQLEEEGAKMTEKETAVTELTMEINKWRLLYEELYDKTKPFQQQLDAFEAEKQALLNEHGATQEQLSKIRDSYAQLLGHQNLKQKIKHVVKLKDENSQLKSEVSKLRSQLAKRKQNELRLQGELDKALGIRHFDPPKAFCHESKENVTLKTPLKEGNPNCC
–	–	binds	caveolin-1, endogenous in rat aortic SMC (protein, UniProt P41350 2-178, looked up) SGGKYVDSEGHLYTVPIREQGNIYKPNNKAMADEVNEKQVYDAHTKEIDLVNRDPKHLNDDVVKIDFEDVIAEPEGTHSFDGIWKASFTTFTVTKYWFYRLLSTIFGIPMALIWGIYFAILSFLHIWAVVPCIKSFLIEIQCISRVYSIYVHTFCDPLFEAIGKIFSNIRISTQEEI

Reference: patent US20070179085A1, “MODULATION OF RHAMM-CAVEOLIN/LIPID RAFT INTERACTIONS TO AFFECT DEVELOPMENT, RESPONSES TO TISSUE INJURY, ANGIOGENESIS, TUMORIGENESIS, METASTASIS AND GROWTH FACTOR/CYTOKINE RESPONSES” (priority 2005, published 2007)
